Assay results as given in patent US20240092918A1.
Results are given in words; binding and its absence hold for the method and conditions named. Some results given as binding are weak or reduced against the parent protein; the word gives no strength.

By UniProt entry, the sequences of proteins in these tests, tags left out. Where a name states a change or a piece, a line headed by the entry shows the natural chain unless it says otherwise.
UniProt P32248: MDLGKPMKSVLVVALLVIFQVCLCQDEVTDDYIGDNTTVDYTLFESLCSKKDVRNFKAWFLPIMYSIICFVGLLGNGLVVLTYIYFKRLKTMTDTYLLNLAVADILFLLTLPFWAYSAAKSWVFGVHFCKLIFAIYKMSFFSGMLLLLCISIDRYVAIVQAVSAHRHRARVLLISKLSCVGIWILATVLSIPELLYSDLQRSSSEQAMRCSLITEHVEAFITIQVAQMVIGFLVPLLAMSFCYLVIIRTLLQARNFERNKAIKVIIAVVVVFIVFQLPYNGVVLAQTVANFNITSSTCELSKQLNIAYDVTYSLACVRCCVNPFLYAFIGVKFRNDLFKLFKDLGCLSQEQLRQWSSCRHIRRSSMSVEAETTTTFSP

Target: Human CCR7 (human) (UniProt P32248)
Assay: FACS on CCR7-carrying cells

binding: binds
B1: 121G12.CysMab.AURIX1 (antibody, human IgG1, kappa, V domains shown)
VH: EVQLVESGGGLVKPGGSLKLSCAASGFTFSTYAMSWVRQTPEKRLEWVATISDGGSYSYYPDNVKGRFTISRDNAKNNLYLQMSHLKSEDTAMYYCARRGSRYEEYYVMDYWGQGTSVTVSS
VL: DIVLTQSPATLSVTPGDSVSLSCRASQSISNNLHWYQQKSHESPKLLIKYASQSISGIPSRFSGSGSGTDFTLSINSVETEDFGMYFCQQSNSWLTFGAGTKLGLKR
modifications: AURIX1 on the engineered cysteines; DAR 3.80
